The record followed here is PMC10602555.

Protein sequences, listed by entry. Tags and fused reporters are not part of them. Lines headed by an entry give the natural chain unless they say otherwise; changes in a name come on top.
UniProt P05549: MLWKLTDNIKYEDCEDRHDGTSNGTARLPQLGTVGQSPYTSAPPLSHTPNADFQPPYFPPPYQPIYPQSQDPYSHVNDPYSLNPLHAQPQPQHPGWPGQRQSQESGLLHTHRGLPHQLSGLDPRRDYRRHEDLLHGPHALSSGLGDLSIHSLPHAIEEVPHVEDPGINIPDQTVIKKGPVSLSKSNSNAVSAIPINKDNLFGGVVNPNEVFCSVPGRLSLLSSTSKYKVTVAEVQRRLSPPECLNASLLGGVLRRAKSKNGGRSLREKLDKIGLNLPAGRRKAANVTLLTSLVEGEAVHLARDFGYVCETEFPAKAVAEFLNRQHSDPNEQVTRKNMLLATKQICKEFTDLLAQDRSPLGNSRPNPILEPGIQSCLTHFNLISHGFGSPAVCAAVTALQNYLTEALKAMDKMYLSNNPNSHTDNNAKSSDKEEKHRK

The target in this series is TFAP2A (UniProt P05549). The experiment in a line: EMSA supershift. Particulars: EJ nuclear extract, anti-TFAP2A, LightShift Chemiluminescent EMSA kit per manufacturer, unlabeled competitor 100x/200x added 20 min before labeled probe, protein in an extract.

The exact form of at least one protein or probe is not confirmed. Results from cells or extracts need not show a direct contact. The comparison behind a weaker result is the experiment's own reference, which may not be listed here. At least one verdict rests on a figure or table, not on a statement of the authors.

On to “CGGCGGGGACGACCTGCAGCTCC (double strand) [rs62483508 A probe]”, for which the binding result (G allele preferred) is listed as “binds more weakly”.
In the case of “CGGCGGGGACGGCCTGCAGCTCC (double strand) [rs62483508 G probe]”, the binding result is “binds”.
